Literature values as cited in patent publication US7713954B2, “Compositions and methods for treating cognitive disorders” (Roche Palo Alto LLC, priority 2004, dated 2010).
At least one structure is not confirmed: it was looked up by name or label, or the drawing left a doubt.

Settings: cited from earlier work

Cc1cc2c(s1)Nc1ccccc1N=C2N1CCN(C)CC1 [Olanzapine]
effect on cognitive function (Nowakowska et al. 1999, only after a lag time of 14 days): improvement in cognitive function | effect on memory (Wolff and Leander 2003): memory improvement | effect on memory in animal cognition models (several studies (Addy and Levin 2002; Skarsfeldt 1996; Rosengarten and Quartermain 2002; Terry et al. 2002)): impairment or no effect on memory
